The values below come from PMC2265268.

The chains behind the UniProt entries cited, without tags or fusion partners. Residues count along the entry.
UniProt Q13098, residues 1-200: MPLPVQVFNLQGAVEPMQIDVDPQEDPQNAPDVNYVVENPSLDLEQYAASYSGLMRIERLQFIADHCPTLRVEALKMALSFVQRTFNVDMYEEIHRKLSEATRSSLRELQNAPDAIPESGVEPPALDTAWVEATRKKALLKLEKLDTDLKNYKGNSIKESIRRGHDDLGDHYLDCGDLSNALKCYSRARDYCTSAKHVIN
UniProt O35286: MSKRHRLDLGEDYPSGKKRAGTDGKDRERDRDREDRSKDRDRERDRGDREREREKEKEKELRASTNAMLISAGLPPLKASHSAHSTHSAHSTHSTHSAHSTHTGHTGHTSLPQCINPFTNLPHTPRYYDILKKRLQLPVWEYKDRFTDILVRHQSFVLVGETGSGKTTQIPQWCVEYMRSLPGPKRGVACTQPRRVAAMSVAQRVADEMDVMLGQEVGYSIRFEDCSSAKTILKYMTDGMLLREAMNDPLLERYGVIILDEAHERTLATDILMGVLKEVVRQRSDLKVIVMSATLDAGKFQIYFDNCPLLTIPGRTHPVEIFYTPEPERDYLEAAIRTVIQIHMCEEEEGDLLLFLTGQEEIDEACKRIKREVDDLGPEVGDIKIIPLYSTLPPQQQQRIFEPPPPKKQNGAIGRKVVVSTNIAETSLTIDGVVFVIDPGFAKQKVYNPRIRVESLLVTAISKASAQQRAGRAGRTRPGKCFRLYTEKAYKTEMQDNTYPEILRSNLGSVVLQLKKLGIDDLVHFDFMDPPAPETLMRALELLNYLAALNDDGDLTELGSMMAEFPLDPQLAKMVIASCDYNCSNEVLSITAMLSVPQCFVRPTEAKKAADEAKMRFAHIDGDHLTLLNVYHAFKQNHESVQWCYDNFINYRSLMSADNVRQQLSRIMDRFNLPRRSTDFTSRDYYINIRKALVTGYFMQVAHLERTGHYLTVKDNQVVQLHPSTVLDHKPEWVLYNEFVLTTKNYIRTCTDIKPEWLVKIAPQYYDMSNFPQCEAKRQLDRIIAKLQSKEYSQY

These are yes or no findings as the source states them, for the method shown. In cells and extracts the contact can be indirect. A yes stands for co-enrichment or nearness to the bait. Other partners may have been found.

In this experiment the target is HT-FS1-NTD (UniProt Q13098). The experiment can be described thus: affinity purification with mass spectrometry; HT-FS1-NTD immobilised on Ni-NTA beads, incubated with NIH3T3 whole cell extract 3 hr at 4°C in binding buffer (25 mM Tris-HCl pH 7.4, 136 mM NaCl, 5 mM KCl, 20 mM imidazole); eluted by TEV protease; Coomassie bands identified by mass spectrometry and peptide sequencing; only the target purified.

On to “Ddx15/mDEAH9/prp43 (from UniProt O35286 1-795)”, for which the binding entry is on record as “binds”.

B1: SAP130/SF3b-3 (endogenous, NIH3T3) (protein, UniProt Q921M3 1-1217)
chain: MFLYNLTLQRATGISFAIHGNFSGTKQQEIVVSRGKILELLRPDPNTGKVHTLLTVEVFGVIRSLMAFRLTGGTKDYIVVGSDSGRIVILEYQPSKNMFEKIHQETFGKSGCRRIVPGQFLAVDPKGRAVMISAIEKQKLVYILNRDAAARLTISSPLEAHKANTLVYHVVGVDVGFENPMFACLEMDYEEADNDPTGEAAANTQQTLTFYELDLGLNHVVRKYSEPLEEHGNFLITVPGGSDGPSGVLICSENYITYKNFGDQPDIRCPIPRRRNDLDDPERGMIFVCSATHKTKSMFFFLAQTEQGDIFKITLETDEDMVTEIRLKYFDTVPVAAAMCVLKTGFLFVASEFGNHYLYQIAHLGDDDEEPEFSSAMPLEEGDTFFFQPRPLKNLVLVDELDSLSPILFCQIADLANEDTPQLYVACGRGPRSSLRVLRHGLEVSEMAVSELPGNPNAVWTVRRHIEDEFDAYIIVSFVNATLVLSIGETVEEVTDSGFLGTTPTLSCSLLGDDALVQVYPDGIRHIRADKRVNEWKTPGKKTIVKCAVNQRQVVIALTGGELVYFEMDPSGQLNEYTERKEMSADVVCMSLANVPPGEQRSRFLAVGLVDNTVRIISLDPSDCLQPLSMQALPAQPESLCIVEMGGTEKQDELGERGSIGFLYLNIGLQNGVLLRTVLDPVTGDLSDTRTRYLGSRPVKLFRVRMQGQEAVLAMSSRSWLSYSYQSRFHLTPLSYETLEFASGFASEQCPEGIVAISTNTLRILALEKLGAVFNQVAFPLQYTPRKFVIHPESNNLIIIETDHNAYTEATKAQRKQQMAEEMVEAAGEDERELAAEMAAAFLNENLPESIFGAPKAGNGQWASVIRVMNPIQGNTLDLVQLEQNEAAFSVAVCRFSNTGEDWYVLVGVAKDLILSPRSVAGGFVYTYKLVNNGEKLEFLHKTPVEEVPAAIAPFQGRVLIGVGKLLRVYDLGKKKLLRKCENKHIANYISGIQTIGHRVIVSDVQESFIWVRYKRNENQLIIFADDTYPRWVTTASLLDYDTVAGADKFGNICVVRLPPNTNDEVDEDPTGNKALWDRGLLNGASQKAEVIMNYHVGETVLSLQKTTLIPGGSESLVYTTLSGGIGILVPFTSHEDHDFFQHVEMHLRSEHPPLCGRDHLSFRSYYFPVKNVIDGDLCEQFNSMEPNKQKNVSEELDRTPPEVSKKLEDIRTRYAF
Take B1: the binding entry is listed as “binds”.
